# PubChem BioAssay AID2685 (National Center for Advancing Translational Sciences (NCATS), 2010)
# The other results are listed elsewhere or left out. These are further read-outs of the screen, such as a control signal, another cell line or another target. No call is given for them. Most of these compounds were active or inconclusive in the main read-out, so they are no random draw. The note in brackets gives the kind of curve behind each potency; many fits are weak.
# Assay: qHTS Assay for Lipid Storage Modulators in Drosophila S3 Cells;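 as to cell number change: cells counted by Cell Tracker Red CMTPX staining in the red channel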
# Conditions: BODIPY lipid droplet fluorescence, 18-24 h; for cell number change: measured here: cell count max response, cells fed with added oleic acid
# Outline: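 Laser-scanning cytometry quantifies lipid droplet accumulation (500–530 nm total intensity; droplet/cell object ratio) in oleic acid-fed (400 uM added) Drosophila S3 cells treated with a concentration series. 20 uM Triacsin C defined 100% inhibition.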
# [1] = measured here: lipid fluorescence (Fed channel) AC50, cells fed with added oleic acid
# [2] = measured here: cell number channel AC50, cells fed with added oleic acid
smiles,measurement,setting,value
O=C(c1ccccc1)N1CCN(C(=O)c2nn3c(C(F)(F)F)cc(-c4ccco4)nc3c2Br)CC1,cell number change,,-1.9%
same,AC50,[1],"6.51 µM [rising, single point]"
CN(C)CCCNC(=O)CCc1ncc(C(F)(F)F)cc1Cl,cell number change,,-37.2%
same,AC50,[1],"3.66 µM [falling, full curve]"
O=C(O)COC(=O)C1C(c2ccccc2)C(C(=O)O)C1c1ccccc1 (stereo not given),cell number change,,27.6%
same,AC50,[2],"0.411 µM [rising, full curve, poor fit]"
same,AC50,[1],"0.092 µM [rising, full curve, poor fit]"
CC(C)NC(=O)Cn1c(SCC(=O)N2c3ccccc3CC2C)nc2ccccc21 (stereo not given),AC50,[2],"0.58 µM [falling, single point]"
COc1cc(/C=N/n2c(-c3n[nH]c4c3CCC4)n[nH]c2=S)ccc1O,cell number change,,13.1%
same,AC50,[1],"0.92 µM [rising, full curve]"
COc1ccc(C(C)(C)C)cc1NC(=O)COC(=O)C(C)C,cell number change,,-26.2%
same,AC50,[1],"29.1 µM [falling, single point]"
CCOC(=O)c1cnc(SCC(=O)c2ccc(Cl)cc2)nc1N,cell number change,,76.1%
same,AC50,[2],"14.6 µM [rising, partial curve]"
CCOC(=O)CNC(=O)CSc1nnc(C)c(=O)[nH]1,cell number change,,3.53%
same,AC50,[1],"5.17 µM [falling, single point]"
CC(NC(=O)c1ccncc1)c1ccccc1 (stereo not given),cell number change,,-1.09%
same,AC50,[1],"4.11 µM [rising, partial curve]"
COc1cc2c(cc1OC)C(c1ccccc1[N+](=O)[O-])N(C(C)=O)CC2 (stereo not given),cell number change,,-3.65%
same,AC50,[1],"0.58 µM [falling, single point]"
Cc1ccc(C)c2[nH]c(=O)c(CN(Cc3nnnn3C3CCCCC3)CC3CCCO3)cc12 (stereo not given),cell number change,,31.8%
same,AC50,[2],"1.46 µM [rising, partial curve, poor fit]"
C/C(=N\NC(=O)c1cccnc1)c1c(O)cc(C)oc1=O,AC50,[1],"25.9 µM [rising, single point]"
O=S(=O)(c1ccc(F)c(Cl)c1)N1CCCC1,cell number change,,-114%
C=C(C)COc1ccc(-c2[nH]ncc2-c2ccc(OC)cc2)c(O)c1,cell number change,,-59.2%
same,AC50,[2],"29.1 µM [falling, single point]"
same,AC50,[1],"29.1 µM [falling, partial curve, poor fit]"
Cc1ccc(NC(=O)[C@@H]2CCCN2C(=O)c2cccs2)cc1S(=O)(=O)N1CCCCC1,cell number change,,2.06%
same,AC50,[1],"14.6 µM [falling, single point]"
COc1cc(/C=C/C(=O)O)cc(S(=O)(=O)NCC2CCCO2)c1OC (stereo not given),cell number change,,4.48%
same,AC50,[2],"0.58 µM [falling, single point]"
CNC(=O)/C(C#N)=C/c1cccc(Oc2ccccc2)c1,cell number change,,-4.7%
O=C(N/N=C/c1ccco1)c1cc2ccccc2o1,cell number change,,-27.8%
same,AC50,[1],"29.1 µM [falling, single point]"
CC(C(=O)NN)c1ccc([N+](=O)[O-])cc1 (stereo not given),cell number change,,-10.8%
same,AC50,[2],"1.16 µM [falling, full curve]"
same,AC50,[1],"1.03 µM [falling, full curve]"
COc1ccccc1NC(=O)Nc1ccnn1Cc1cccs1,cell number change,,-25.1%
COc1ccc(C(=O)NC(=S)N2CCOCC2)cc1Br,cell number change,,44.2%
same,AC50,[2],"29.1 µM [rising, single point]"
same,AC50,[1],"29.1 µM [rising, single point]"
COc1ccc(CNc2ccc3c(c2)nc(C)n3C)cc1,cell number change,,-31.3%
same,AC50,[2],"29.1 µM [falling, single point]"
O=CNCCCc1nc2ccccc2n1CCc1ccccc1,cell number change,,12.8%
same,AC50,[2],"6.51 µM [rising, partial curve, poor fit]"
same,AC50,[1],"2.91 µM [rising, single point]"
O=C(OC[C@@H]1CCCN2CCCC[C@H]12)c1cc2ccccc2oc1=O,cell number change,,28%
same,AC50,[1],"14.6 µM [rising, partial curve, poor fit]"
COC(=O)C1=C(N)Oc2cc(N(C)C)ccc2C1c1ccccc1OC (stereo not given),cell number change,,-10%
same,AC50,[1],"0.082 µM [rising, single point]"
CCN(Cc1ccncc1)C(=O)c1cc(COc2c(F)cccc2F)on1,AC50,[2],"5.17 µM [rising, single point]"
Cc1cc(NC(=O)COC(=O)c2cc(S(=O)(=O)N(C)C)ccc2Cl)no1,cell number change,,2.72%
same,AC50,[1],"1.84 µM [rising, partial curve, poor fit]"
CCn1c(COc2cccc(OC)c2)nnc1SCC(=O)N1CCOCC1,cell number change,,-14.2%
same,AC50,[1],"0.146 µM [falling, full curve, poor fit]"
Cc1cc(Cl)ccc1NC(=O)CN1C(=O)C(=O)N(C2CCCC2)C1=O,cell number change,,17.5%
Cc1cc(C(=O)NCC(c2ccco2)N2CCCC2)c2ccccc2n1 (stereo not given),cell number change,,-8.64%
same,AC50,[1],"4.61 µM [falling, single point]"
CCc1ccccc1N(CC(=O)NC1CCCCC1)C(=O)CCCC(=O)Nc1ccccn1,cell number change,,-8.97%
same,AC50,[2],"0.00517 µM [falling, full curve, poor fit]"
Cn1c(C(=O)NCCN2CCOCC2)cc2sccc21,AC50,[1],"9.2 µM [rising, partial curve]"
N#Cc1ccsc1NC(=O)CN1CCN(c2ccc(O)cc2)CC1,cell number change,,13.3%
same,AC50,[1],"0.00461 µM [rising, full curve, poor fit]"
O=c1c2ccccc2ncn1CCCSc1ccccc1,cell number change,,-6.9%
same,AC50,[1],"7.31 µM [falling, single point]"
CSc1ccc(S(=O)(=O)N2CCC(C(=O)N3CCOCC3)CC2)cc1,cell number change,,-11.5%
CS(=O)(=O)N1CCCC(C(=O)NC2CCCCCCC2)C1 (stereo not given),AC50,[1],"29.1 µM [falling, partial curve]"
Cc1cc(OCC(=O)NCCO)cc(C)c1Cl,cell number change,,-18%
same,AC50,[1],"5.17 µM [falling, single point]"
Nn1c(SCC(=O)N2CCCc3ccccc32)nnc1-c1ccc(Cl)cc1,cell number change,,0.0698%
same,AC50,[1],"3.26 µM [rising, single point]"
COc1ccc(Cc2nnc(NC(=O)c3cccs3)s2)cc1,cell number change,,-4.78%
CCCCCCCC1c2c(c(C)c(C)oc2=O)Oc2c(C)c(C)oc(=O)c21,cell number change,,-14.6%
same,AC50,[2],"0.326 µM [falling, partial curve, poor fit]"
Cc1ccc(N(CC(=O)NCc2ccc(F)cc2)S(=O)(=O)c2c(C)nn(C)c2C)cc1,cell number change,,-11.8%
same,AC50,[1],"23.1 µM [rising, single point]"
O=C(Nn1cc(C(=O)N2CCN(c3ccccc3F)CC2)c2ccccc2c1=O)c1cnccn1,cell number change,,25.1%
CSc1nnc(NC(=O)c2nc(S(=O)(=O)Cc3ccccc3F)ncc2Cl)s1,cell number change,,-5.07%
same,AC50,[1],"0.116 µM [rising, full curve, poor fit]"
COc1ccc(-n2ncc3c2CC(C)(C)CC3NC(=O)CCc2c(C)noc2C)cc1 (stereo not given),cell number change,,31%
same,AC50,[2],"29.1 µM [rising, partial curve, poor fit]"
same,AC50,[1],"23.1 µM [rising, single point]"
Cc1c(Cc2ccccc2)c(=O)oc2cc(O)ccc12,cell number change,,-17.6%
same,AC50,[1],"29.1 µM [falling, single point]"
O=S(=O)(NCCOCCNS(=O)(=O)c1ccccc1)c1ccccc1,cell number change,,4.14%
same,AC50,[1],"0.058 µM [falling, full curve, poor fit]"
CCc1nc2nc(C)c(NS(=O)(=O)c3cccs3)c(=O)n2[nH]1,cell number change,,18.5%
same,AC50,[1],"29.1 µM [rising, single point]"
O=C(N/N=C/c1c(Cl)cccc1Cl)C(=O)NC1CC1,cell number change,,-7.24%
CC(C)CC(C(=O)N1CCc2ccccc2C1)N1C(=O)c2ccccc2C1=O (stereo not given),AC50,[2],"1.84 µM [falling, partial curve]"
CN(C)c1ccc(C(C(=O)NC2CCCC2)N(C(=O)c2ccco2)C2CC2)cc1 (stereo not given),cell number change,,21.4%
same,AC50,[1],"0.326 µM [falling, single point]"
CCOc1ccc(NC(=O)CCc2c(C)noc2C)cc1OC,cell number change,,-10.7%
same,AC50,[2],"0.651 µM [falling, full curve, poor fit]"
CCC(C)N=Cc1c(Nc2ccccc2)nc2c(C)cccn2c1=O (stereo not given),cell number change,,14.1%
same,AC50,[1],"0.82 µM [rising, full curve]"
CCOc1ccccc1C(=O)NCC(=O)NCCc1ccc(S(N)(=O)=O)cc1,cell number change,,15.9%
Cn1c(N)c(C(=O)COC(=O)CC(NC(N)=O)c2ccc(Cl)cc2)c(=O)n(C)c1=O (stereo not given),cell number change,,-25%
O=C(O)CCCN1C(=O)/C(=C\C(Cl)=C\c2ccccc2)SC1=S,cell number change,,-8.45%
same,AC50,[1],"18.4 µM [falling, partial curve]"
O=S(=O)(CCc1nc2ccccc2s1)c1ccc2ccccc2c1,cell number change,,63.3%
same,AC50,[2],"29.1 µM [rising, single point]"
same,AC50,[1],"6.51 µM [falling, single point]"
CCOC(=O)Cn1nnnc1CN(CCc1ccccc1)Cc1cc2cc(CC)ccc2[nH]c1=O,AC50,[1],"29.1 µM [rising, single point]"
Cc1ccc(-c2cc(C(F)(F)F)c(C#N)c(=O)[nH]2)cc1,cell number change,,6.88%
CC1(C)N=C(SCC(=O)Nc2ccccc2)C(c2ccc(Cl)cc2)=N1,cell number change,,25.6%
same,AC50,[2],"0.517 µM [rising, full curve]"
same,AC50,[1],"11.6 µM [rising, partial curve, poor fit]"
O=c1[nH]nc(Cc2ccc(-c3ccccc3Cl)o2)c2ccccc12,cell number change,,-30.2%
same,AC50,[2],"20.6 µM [falling, single point]"
same,AC50,[1],"0.13 µM [rising, full curve, poor fit]"
CC(C)C12CN3CCN(CC(C3)/C1=N\NC(=O)Nc1ccccc1)C2,cell number change,,-64.6%
same,AC50,[2],"32.6 µM [falling, partial curve, poor fit]"
CC(=O)c1ccc(N2CCN(C(=O)CCCc3nc4ccccc4s3)CC2)cc1,cell number change,,-2.07%
same,AC50,[1],"16.4 µM [falling, single point]"

# Fetched one by one from the list above, five records:
smiles,measurement,setting,value
COc1ccc(-n2ncc3c2CC(C)(C)CC3NC(=O)CCc2c(C)noc2C)cc1 (stereo not given),AC50,[2],"29.1 µM [rising, partial curve, poor fit]"
CC(C)C12CN3CCN(CC(C3)/C1=N\NC(=O)Nc1ccccc1)C2,AC50,[2],"32.6 µM [falling, partial curve, poor fit]"
COc1cc(/C=N/n2c(-c3n[nH]c4c3CCC4)n[nH]c2=S)ccc1O,AC50,[1],"0.92 µM [rising, full curve]"
COc1ccc(-n2ncc3c2CC(C)(C)CC3NC(=O)CCc2c(C)noc2C)cc1 (stereo not given),cell number change,,31%
O=c1[nH]nc(Cc2ccc(-c3ccccc3Cl)o2)c2ccccc12,cell number change,,-30.2%
